Out of some 360,000 compounds screened, about 7,500 (2.1%) were called active. This list was built around the results that the source calls inconclusive (neither active nor inactive); the mix of calls is not that of the screen. Calls come from the whole dose curve; as a rule, active = well fitted inhibition curve with a large enough effect; inconclusive = small, poorly fitted or top-dose-only effect, or effect the other way; inactive = flat fitted curve, though single readings scatter. Potencies of inconclusive entries are doubtful fits and often do not repeat.
experiment: Nrf2 qHTS screen for inhibitors; settings: A549 ARE-Fluc reporter, luciferase luminescence, 18-24 h; activity change, negative = inhibition: at 46 µM (top of the series); note: nearly all actives have a fitted effect of over 60% in size
How it was run: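 A549 ARE_Fluc cells, 5000/well, 5% FBS OPTI-MEM; compounds in dose-response, 18-24 h at 37 °C/5% CO2; CellTiter-Fluor viability read (Ex 405/Em 525), then BugLite luciferase luminescence = Nrf2 activity.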
% is set by controls: 0 for no effect and ±100 for the full control effect; potency is the fitted concentration of half-maximal effect.

| SMILES | Potency | activity change, negative = inhibition |
| --- | --- | --- |
| CCCCCCCCCCCNC(=O)c1ccoc1C | inconclusive: 20.6 µM [falling, partial curve, poor fit] | – |
| Cc1cccc(OCCCn2c(CCNC(=O)C(C)(C)C)nc3ccccc32)c1 | – | inactive: -21.8% |
| CSc1nc(Oc2ccc3ccccc3c2)c2sccc2n1 | inconclusive: 29.1 µM [falling, single point] | – |
| CN(C)c1ccc(P(=O)(OC2CCCCC2)C(O)c2cccnc2)cc1 (stereo not given) | – | inactive: 4.31% |
| C=CCOn1c(=O)c(C)[n+]([O-])c2ccccc21 | inconclusive: 4.61 µM [activator, partial curve] | – |
| Cc1ccccc1-c1nnc(-c2ccc(Cl)cc2)o1 | inconclusive: 8.2 µM [activator, partial curve] | – |
| CCOC(=O)CCc1ccc(NC(=O)/C=C/c2ccc([N+](=O)[O-])o2)cc1 | inconclusive: 29.1 µM [activator, single point] | – |
| CC(C)(C)C1CCC(C(=O)NNC(=O)c2ccncc2)CC1 (stereo not given) | – | inactive: -2.39% |
| O=[S+]([O-])(c1ccc2c(c1)OCCO2)N1CCN([S+](=O)([O-])c2ccccc2Br)CC1 | – | inactive: 4.5% |
| O=C(CSc1ccc2c(c1)OCCO2)Nc1ccc(Cl)cn1 | inconclusive: 25.9 µM [falling, partial curve, poor fit] | – |
| CNC(=O)c1ccc(NC(=O)C2CCN(c3ncnc4sc(C)c(C)c34)CC2)cc1 | inconclusive: 2.06 µM [falling, full curve] | – |
| Cc1ccc(-c2nn(-c3ccccc3)cc2C=C2C(=O)CC(C)(C)CC2=O)cc1 | inconclusive: 9.2 µM [activator, partial curve, poor fit] | – |
| c1ccc2c(c1)OCC(c1csc3ncnc(N4CCOCC4)c13)O2 (stereo not given) | inconclusive: 11.6 µM [falling, partial curve] | – |
| CC(C)C(=O)Nc1nnc(SCC(=O)NCc2cccs2)s1 | inconclusive: 7.31 µM [activator, partial curve, poor fit] | – |
| COc1ccc(Br)cc1CN(C)CC(O)COc1ccc(Br)cc1 (stereo not given) | – | inactive: 10.3% |
| COc1ccccc1NC(=O)c1c(N=Cc2c(O)ccc3ccccc23)cnn1C | – | inactive: 7.06% |
| Cc1ccc2cc(COC(=O)C3CCCO3)c(=O)[nH]c2c1 (stereo not given) | – | inactive: 3.51% |
| Cc1nonc1NC(=O)c1ccc(Cl)c(S(=O)(=O)N2CCCCC2)c1 | inconclusive: 20.6 µM [falling, partial curve] | – |
| Cc1cc(OCc2cc(C(=O)N(C)CCc3cnn(C)c3)no2)cc(C)c1Cl | inconclusive: 1.3 µM [activator, full curve] | – |
| Cc1csc2nc(COC(=O)CNC(=O)c3ccccc3Cl)cc(=O)n12 | inconclusive: 16.4 µM [activator, partial curve, poor fit] | – |

Five entries from above, reformatted:
SMILES,Potency,"activity change, negative = inhibition"
COc1ccccc1NC(=O)c1c(N=Cc2c(O)ccc3ccccc23)cnn1C,–,inactive: 7.06%
Cc1ccc2cc(COC(=O)C3CCCO3)c(=O)[nH]c2c1 (stereo not given),–,inactive: 3.51%
Cc1nonc1NC(=O)c1ccc(Cl)c(S(=O)(=O)N2CCCCC2)c1,"inconclusive: 20.6 µM [falling, partial curve]",–
Cc1cc(OCc2cc(C(=O)N(C)CCc3cnn(C)c3)no2)cc(C)c1Cl,"inconclusive: 1.3 µM [activator, full curve]",–
Cc1csc2nc(COC(=O)CNC(=O)c3ccccc3Cl)cc(=O)n12,"inconclusive: 16.4 µM [activator, partial curve, poor fit]",–

— PubChem BioAssay AID504444 (National Center for Advancing Translational Sciences (NCATS), 2011)
